The source of these data is publication PMC5962693.

This assay concerns the target GST-CT622 (C. trachomatis D/UW-3/CX) (UniProt O84627). The experiment in a line: affinity purification with mass spectrometry; 30 μg purified GST or GST-CT622 with glutathione sepharose 4B beads, incubated 90 min at 4°C with precleaned, sonicated lysate of elementary bodies (NP40 lysis buffer); five washes; eluted with urea buffer; done twice; only the target purified.

These are yes or no findings as the source states them, for the method shown. In cells and extracts the contact can be indirect. A yes stands for co-enrichment or nearness to the bait. Other partners may have been found.

B1: CT635 (protein, UniProt O84640 1-144)
chain: MKNNSAQKIIDSIKQILSIYKIDFEPSFGATLTDDNDLDYQMLIEKTQEKIQELDKRSQEILQQTGMTREQMEVFANNPDNFSPEEWRALENIRSSCNEYKKETEELIKEVTNDIGHSSHKSPTPKKTKSSSQKKSKKKNWIPL
B1: the binding entry is given as “binds”.
